Source: patent US20230406921A1
These are yes or no findings as the source states them, for the method shown. Some entries that bind do so weakly or less than the wild type.

Protein sequences, listed by entry. Tags and fused reporters are not part of them. Residues count along the entry.
UniProt Q9NZQ7, residues 19-290: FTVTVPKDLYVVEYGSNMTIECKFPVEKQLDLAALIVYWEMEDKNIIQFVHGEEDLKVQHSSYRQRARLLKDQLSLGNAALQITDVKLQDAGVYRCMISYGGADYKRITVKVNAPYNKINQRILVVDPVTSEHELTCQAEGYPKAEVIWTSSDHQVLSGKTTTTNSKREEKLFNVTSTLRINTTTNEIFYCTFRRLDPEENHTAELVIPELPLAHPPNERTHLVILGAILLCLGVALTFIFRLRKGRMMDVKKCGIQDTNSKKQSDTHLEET
UniProt Q08722, residues 19-139: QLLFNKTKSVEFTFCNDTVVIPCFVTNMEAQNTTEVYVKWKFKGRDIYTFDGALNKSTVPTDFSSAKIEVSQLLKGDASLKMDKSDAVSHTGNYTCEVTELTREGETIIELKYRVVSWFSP

Experiments:
[1] = target: human PD-L1 on cells (human) (UniProt Q9NZQ7); assay: flow cytometry on A431 cells
[2] = target: human PD-L1 on cells (human) (UniProt Q9NZQ7); assay: flow cytometry on MC38-hPD-L1/hCD47 cells
CD47-His (human) = CD47-His (human) (UniProt Q08722); assay: Fortebio BLI

Binder | binding [1] | binding [2] | binding (CD47-His (human))
anti-PD-L1 monoclonal antibody (hz182) (antibody, human IgG4 S228P, kappa, V domains shown) VH: QLVQSGAEVKKPGATVKISCKVSGFNIKDIYMHWVQQAPGKGLEWMGRIDPANANTKYDPKFQDRVTITADTSTNTAYMELSSLRSEDTAVYYCASGQLGPLGFDYWGQGTTVTVSS VL: DIQMTQSPSSLSASVGDRVTITCRASQDISNYLNWYQQKPGKAPKLLLYYTSRLHSGVPSRFSGSGSGTDYTLTISSLQPEDFATYFCQQGAGRPYTFGGGTKVEIKR | binds | binds | –
humanized 140 (hz140) (antibody, human IgG4 S228P, kappa, V domains shown) VH: QVQLVQSGAEVKKPGASVKVSCKASGYKFTNYVMHWVRQAPGQRLEWMGYINPYNDGIKYNEKFTGRVTITRDTSASTAYMELSSLRSEDTAVYYCAREGDFYANYGRLGFAYWGQGTLVTVSS VL: DIQMTQSPSSLSASVGDRVTITCRASQDITNYLNWYQQKPGKAPKLLIYYTSRLHSGVPSRFSGSGSGTDYTFTISSLQPEDIATYFCQQGDTFPRTFGGGTKVEIKR | – | – | binds
